Measured values reported in the supplement of paper PMC10849652.
The other results are listed elsewhere or left out.

Chains of the proteins cited; added tags and fusions are not shown. Lines headed by an entry give the natural chain unless they say otherwise; changes in a name come on top.
UniProt Q9BVK6: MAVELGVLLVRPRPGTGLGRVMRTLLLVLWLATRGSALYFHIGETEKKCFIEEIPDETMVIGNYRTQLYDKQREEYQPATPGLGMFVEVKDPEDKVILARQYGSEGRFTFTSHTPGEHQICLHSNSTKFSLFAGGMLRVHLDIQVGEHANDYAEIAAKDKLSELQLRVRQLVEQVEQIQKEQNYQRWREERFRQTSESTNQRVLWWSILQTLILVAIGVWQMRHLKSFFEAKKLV
UniProt O15321, whole entry, looked up: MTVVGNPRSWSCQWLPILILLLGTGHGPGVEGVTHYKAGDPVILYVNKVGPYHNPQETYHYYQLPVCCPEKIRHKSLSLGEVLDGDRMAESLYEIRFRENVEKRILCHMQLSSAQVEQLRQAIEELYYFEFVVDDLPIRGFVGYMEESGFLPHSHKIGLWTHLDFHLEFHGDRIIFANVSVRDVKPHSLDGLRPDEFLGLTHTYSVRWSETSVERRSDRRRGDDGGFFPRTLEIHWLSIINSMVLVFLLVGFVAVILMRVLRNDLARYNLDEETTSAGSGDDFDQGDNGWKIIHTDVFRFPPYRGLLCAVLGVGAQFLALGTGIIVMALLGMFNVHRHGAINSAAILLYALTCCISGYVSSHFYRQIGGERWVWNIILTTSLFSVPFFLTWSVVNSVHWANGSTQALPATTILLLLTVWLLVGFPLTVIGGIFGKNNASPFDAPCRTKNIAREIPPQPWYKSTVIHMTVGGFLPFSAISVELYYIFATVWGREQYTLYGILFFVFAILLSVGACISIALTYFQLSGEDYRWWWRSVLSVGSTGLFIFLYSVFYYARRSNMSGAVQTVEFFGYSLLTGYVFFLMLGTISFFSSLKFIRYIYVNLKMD
UniProt Q9H061: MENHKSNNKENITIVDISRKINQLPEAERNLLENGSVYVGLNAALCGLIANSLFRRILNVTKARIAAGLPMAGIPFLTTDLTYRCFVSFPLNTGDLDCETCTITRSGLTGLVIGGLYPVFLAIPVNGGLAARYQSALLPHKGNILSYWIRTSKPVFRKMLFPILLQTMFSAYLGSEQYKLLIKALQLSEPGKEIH
UniProt Q5TEJ8: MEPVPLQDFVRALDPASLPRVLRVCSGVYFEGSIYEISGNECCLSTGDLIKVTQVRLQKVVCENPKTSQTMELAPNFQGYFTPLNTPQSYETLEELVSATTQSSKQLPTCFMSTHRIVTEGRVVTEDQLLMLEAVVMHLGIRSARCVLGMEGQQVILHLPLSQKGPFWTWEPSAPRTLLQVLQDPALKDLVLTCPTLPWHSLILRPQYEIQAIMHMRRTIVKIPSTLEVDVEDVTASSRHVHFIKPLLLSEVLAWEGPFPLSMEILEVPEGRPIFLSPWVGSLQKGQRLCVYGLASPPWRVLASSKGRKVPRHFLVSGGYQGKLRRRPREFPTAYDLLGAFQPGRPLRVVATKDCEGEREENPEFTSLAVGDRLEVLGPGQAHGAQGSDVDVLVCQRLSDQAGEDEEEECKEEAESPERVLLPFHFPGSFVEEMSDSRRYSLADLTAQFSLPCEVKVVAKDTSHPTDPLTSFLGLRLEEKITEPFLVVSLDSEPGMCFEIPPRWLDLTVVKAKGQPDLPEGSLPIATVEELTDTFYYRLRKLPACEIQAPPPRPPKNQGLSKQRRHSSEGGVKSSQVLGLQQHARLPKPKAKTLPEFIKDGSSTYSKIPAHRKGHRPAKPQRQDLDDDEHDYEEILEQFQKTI
UniProt Q9BXJ8: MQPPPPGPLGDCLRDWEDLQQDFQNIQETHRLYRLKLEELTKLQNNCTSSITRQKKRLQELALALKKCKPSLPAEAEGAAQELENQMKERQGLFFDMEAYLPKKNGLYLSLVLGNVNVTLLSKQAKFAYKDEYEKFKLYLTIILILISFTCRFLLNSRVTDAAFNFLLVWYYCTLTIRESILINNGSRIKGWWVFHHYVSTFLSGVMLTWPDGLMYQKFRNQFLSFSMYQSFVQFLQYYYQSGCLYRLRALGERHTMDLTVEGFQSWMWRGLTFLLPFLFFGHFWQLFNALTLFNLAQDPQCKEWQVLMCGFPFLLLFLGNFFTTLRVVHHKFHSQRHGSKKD
UniProt Q8IUX1: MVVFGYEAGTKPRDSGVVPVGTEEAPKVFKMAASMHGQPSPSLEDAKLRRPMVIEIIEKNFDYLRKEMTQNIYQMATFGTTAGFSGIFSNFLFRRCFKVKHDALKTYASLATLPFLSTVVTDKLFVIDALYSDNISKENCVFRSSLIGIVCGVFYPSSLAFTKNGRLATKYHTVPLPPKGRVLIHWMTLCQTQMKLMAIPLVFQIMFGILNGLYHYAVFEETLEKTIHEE
UniProt P01033: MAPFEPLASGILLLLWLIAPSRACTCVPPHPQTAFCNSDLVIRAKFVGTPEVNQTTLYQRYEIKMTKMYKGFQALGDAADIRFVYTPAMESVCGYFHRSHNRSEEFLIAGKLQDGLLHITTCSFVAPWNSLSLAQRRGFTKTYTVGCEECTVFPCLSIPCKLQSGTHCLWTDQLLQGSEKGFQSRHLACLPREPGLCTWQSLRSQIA
UniProt Q9NXG2: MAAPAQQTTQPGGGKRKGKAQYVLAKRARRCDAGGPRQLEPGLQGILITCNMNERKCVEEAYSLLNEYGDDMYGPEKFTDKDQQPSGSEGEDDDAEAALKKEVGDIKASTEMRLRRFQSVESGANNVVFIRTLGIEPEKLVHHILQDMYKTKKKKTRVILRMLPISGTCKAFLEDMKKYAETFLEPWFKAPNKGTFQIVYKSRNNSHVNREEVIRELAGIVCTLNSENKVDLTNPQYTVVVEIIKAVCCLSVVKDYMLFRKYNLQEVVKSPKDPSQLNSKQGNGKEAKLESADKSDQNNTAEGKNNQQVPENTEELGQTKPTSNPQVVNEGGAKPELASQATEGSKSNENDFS
UniProt Q6YHU6: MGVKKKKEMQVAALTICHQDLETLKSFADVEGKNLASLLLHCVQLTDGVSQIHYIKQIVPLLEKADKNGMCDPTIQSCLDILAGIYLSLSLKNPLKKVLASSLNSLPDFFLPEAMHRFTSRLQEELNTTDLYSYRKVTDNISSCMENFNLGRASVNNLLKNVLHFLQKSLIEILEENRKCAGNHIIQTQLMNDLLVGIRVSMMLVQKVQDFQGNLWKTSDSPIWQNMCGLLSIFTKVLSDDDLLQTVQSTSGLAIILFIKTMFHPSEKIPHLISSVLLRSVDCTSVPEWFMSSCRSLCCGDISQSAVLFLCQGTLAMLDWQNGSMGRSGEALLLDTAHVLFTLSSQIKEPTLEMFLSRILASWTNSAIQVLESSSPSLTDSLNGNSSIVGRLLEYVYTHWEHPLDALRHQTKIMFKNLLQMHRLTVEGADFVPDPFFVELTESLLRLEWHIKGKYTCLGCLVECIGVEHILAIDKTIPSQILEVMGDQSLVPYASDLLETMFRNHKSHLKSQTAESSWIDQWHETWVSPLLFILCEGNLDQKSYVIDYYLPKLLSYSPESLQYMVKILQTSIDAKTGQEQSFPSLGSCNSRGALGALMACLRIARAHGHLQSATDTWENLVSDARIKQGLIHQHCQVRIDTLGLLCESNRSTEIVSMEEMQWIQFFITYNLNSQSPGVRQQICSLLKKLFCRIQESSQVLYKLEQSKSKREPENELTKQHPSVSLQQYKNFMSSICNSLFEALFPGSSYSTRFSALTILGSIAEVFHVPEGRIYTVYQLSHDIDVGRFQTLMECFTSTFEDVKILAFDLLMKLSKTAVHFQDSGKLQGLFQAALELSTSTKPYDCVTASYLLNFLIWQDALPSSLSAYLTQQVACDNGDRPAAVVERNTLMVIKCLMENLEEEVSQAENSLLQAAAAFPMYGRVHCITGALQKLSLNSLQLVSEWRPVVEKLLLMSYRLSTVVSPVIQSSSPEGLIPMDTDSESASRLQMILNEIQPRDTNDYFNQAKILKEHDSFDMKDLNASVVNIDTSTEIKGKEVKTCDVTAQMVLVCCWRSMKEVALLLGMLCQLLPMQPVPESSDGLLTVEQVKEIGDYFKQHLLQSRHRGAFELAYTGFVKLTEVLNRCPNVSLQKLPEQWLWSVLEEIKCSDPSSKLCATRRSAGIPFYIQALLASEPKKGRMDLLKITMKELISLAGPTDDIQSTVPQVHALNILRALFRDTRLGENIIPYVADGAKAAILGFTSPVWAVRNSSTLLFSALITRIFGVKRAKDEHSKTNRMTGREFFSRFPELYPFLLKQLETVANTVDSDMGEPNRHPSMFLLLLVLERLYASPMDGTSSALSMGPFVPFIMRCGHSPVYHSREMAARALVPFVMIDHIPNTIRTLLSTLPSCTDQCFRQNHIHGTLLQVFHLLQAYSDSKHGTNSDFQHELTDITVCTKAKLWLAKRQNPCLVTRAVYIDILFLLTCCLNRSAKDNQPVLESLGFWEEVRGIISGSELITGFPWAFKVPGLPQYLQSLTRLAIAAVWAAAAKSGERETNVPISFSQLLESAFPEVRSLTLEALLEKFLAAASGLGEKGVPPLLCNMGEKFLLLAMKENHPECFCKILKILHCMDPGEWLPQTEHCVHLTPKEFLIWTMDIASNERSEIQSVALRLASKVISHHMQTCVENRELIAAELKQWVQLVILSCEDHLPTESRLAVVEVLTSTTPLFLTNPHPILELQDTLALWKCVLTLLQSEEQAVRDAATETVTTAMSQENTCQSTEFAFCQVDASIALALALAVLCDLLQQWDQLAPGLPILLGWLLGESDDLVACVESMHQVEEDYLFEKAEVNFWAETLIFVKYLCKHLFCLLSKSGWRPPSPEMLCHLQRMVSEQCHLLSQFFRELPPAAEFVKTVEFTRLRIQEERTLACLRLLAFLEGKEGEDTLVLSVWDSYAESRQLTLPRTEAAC
UniProt Q9H7F4: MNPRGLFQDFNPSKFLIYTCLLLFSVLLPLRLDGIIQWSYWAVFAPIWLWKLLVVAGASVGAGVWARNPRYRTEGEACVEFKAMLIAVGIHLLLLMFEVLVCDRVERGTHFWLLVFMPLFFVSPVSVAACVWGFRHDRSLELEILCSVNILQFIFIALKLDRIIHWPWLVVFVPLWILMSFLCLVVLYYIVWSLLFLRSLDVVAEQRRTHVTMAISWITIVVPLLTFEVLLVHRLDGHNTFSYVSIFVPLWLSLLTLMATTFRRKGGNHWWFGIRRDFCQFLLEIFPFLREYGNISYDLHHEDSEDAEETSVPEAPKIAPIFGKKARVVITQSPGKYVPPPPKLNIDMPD
UniProt Q8IYQ7: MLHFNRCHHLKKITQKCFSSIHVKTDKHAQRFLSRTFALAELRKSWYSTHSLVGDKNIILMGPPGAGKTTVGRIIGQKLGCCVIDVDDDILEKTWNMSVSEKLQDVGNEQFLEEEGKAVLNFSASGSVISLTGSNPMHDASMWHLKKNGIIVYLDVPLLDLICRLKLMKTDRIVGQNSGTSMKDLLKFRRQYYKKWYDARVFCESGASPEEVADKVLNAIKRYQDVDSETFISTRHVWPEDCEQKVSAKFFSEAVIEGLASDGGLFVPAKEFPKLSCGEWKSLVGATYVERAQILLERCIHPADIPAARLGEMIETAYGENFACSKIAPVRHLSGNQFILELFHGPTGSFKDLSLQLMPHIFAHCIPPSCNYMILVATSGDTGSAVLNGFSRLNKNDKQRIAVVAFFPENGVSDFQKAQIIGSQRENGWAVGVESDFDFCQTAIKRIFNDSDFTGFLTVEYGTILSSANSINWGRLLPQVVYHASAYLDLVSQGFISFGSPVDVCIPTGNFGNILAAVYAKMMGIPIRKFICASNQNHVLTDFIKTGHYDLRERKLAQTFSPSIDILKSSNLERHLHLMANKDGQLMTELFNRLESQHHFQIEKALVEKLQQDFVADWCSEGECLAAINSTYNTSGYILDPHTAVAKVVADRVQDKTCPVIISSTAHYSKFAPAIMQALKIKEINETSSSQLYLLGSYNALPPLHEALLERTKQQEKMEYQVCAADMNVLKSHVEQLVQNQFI
UniProt Q9NPL8: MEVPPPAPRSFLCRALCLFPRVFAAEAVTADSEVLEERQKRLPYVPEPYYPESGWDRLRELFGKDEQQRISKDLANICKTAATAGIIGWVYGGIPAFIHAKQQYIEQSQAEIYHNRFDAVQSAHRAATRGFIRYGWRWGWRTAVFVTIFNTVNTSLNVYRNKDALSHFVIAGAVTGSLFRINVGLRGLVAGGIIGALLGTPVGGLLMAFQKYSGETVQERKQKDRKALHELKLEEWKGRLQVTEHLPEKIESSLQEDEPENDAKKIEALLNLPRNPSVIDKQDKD
UniProt Q13445: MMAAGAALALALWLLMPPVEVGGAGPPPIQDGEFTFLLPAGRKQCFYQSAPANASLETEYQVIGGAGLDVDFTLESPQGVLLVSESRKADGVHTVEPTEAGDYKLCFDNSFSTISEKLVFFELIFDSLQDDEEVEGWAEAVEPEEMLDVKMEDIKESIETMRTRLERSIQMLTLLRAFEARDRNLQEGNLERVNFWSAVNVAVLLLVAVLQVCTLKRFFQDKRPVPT
UniProt Q9Y5L4: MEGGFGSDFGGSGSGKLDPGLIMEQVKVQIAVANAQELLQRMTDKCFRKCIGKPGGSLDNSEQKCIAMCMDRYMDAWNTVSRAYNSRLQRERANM

Key:
Test in all cases: log2 fold change, soluble protein after heating vs DMSO (PISA); higher = thermal stabilisation; K562 lysate, 10 uM; active = over 0.2 and 3.5 SD of the protein, either way, in both replicates (recomputed)
erlotinib = compound: C#Cc1cccc(Nc2ncnc3cc(OCCOC)c(OCCOC)cc23)c1 [erlotinib]
Method in brief: (§1)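 A 30 min treatment with 10 μM compound was applied to crude K562 extract at 1 mg/mL protein in PBS pH 7.4 with 1 mM MgCl2. Heating for 3 min spanned 48°C-58°C, after which aliquots were pooled, adjusted to 0.5% NP-40 at 4°C and spun at 21,000xg for 90 min. TMTpro 16plex LC-MS/MS of the supernatant, with channel sums equalised, gave values recorded as log-two fold change in thermal stability against solvent controls, from duplicates.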

[1] = compound: C/C(=N\NC(=O)C1=CC(=CC=C1)S(=O)(=O)N2CCOCC2)/C3=C(C=CC(=C3)Cl)O
Method in brief: as §1

[2] = compound: C1=CC(=CC=C1C2=NC3=C(N2)C=C(C=C3)C(=O)N)OC4=CC=C(C=C4)Cl
Method in brief: as §1

[3] = compound: C1=CC2=C(C=CC(=C2)/C=C\3/C(=O)NC(=NCC4=CC=CS4)S3)N=C1
Method in brief: as §1

[4] = compound: C1=CC2=NC=CN=C2C=C1/C=C/3\C(=O)NC(=O)S3
Method in brief: as §1

[5] = compound: C1=CC=C(C=C1)C2=NC(=C(N2)C3=CC=NC=C3)C4=CC(=C(C=C4)Cl)O
Method in brief: as §1

[6] = compound: C1=CC=C2C(=C1)C3=NNC4=CC=CC(=C43)C2=O
Method in brief: as §1

[7] = compound: C1CCN(C1)C(=O)NC2=CC=CC(=C2)NC3=NC=C(C(=N3)NCCC4=CN=CN4)Br
Method in brief: as §1

[8] = compound: C1CN(CCC1(CC2=CC=C(C=C2)Cl)N)C3=NC=NC4=C3C=CN4
Method in brief: as §1

IRAK-1-4 Inhibitor I = compound: C1COCCN1CCN2C3=CC=CC=C3N=C2NC(=O)C4=CC(=CC=C4)[N+](=O)[O-] [IRAK-1-4 Inhibitor I]
Method in brief: as §1

ibrutinib = compound: C=CC(=O)N1CCC[C@@H](n2nc(-c3ccc(Oc4ccccc4)cc3)c3c(N)ncnc32)C1 [ibrutinib]
Method in brief: as §1

[9] = compound: CC(=O)c1cnc2ccc(-c3cc(Cl)c(O)c(Cl)c3)nc2c1N[C@H]1CC[C@H](CN(C)C)CC1
Method in brief: as §1

ralimetinib = compound: CC(C)(C)Cn1c(N)nc2ccc(-c3[nH]c(C(C)(C)C)nc3-c3ccc(F)cc3)nc21 [ralimetinib]
Method in brief: as §1

[10] = compound: CC(C)(O)CC(=O)NCCn1ccc2ncnc(Nc3ccc(Oc4cccc(C(F)(F)F)c4)c(Cl)c3)c21
Method in brief: as §1

[11] = compound: CC(C)C1=C2N=C(C=C(N2N=C1)NCC3=CC=CC=C3)NCCCCCCN
Method in brief: as §1

[12] = compound: CC1=C(C(CC(=O)N1)C2=CC=C(C=C2)C(F)(F)F)C(=O)NC3=C(C=C4C(=C3)C=NN4)F
Method in brief: as §1

[13] = compound: CC1=C(C2=C(C=C1)C(=O)C3=CC=CC=C3N2CCCN)C
Method in brief: as §1

[14] = compound: CC1=C(C=C(C=C1)NC(=O)C2=CC(=CC=C2)C(C)(C)C#N)NC3=CC4=C(C=C3)N=CN(C4=O)C
Method in brief: as §1

[15] = compound: CC1=C(C=C(C=C1)NC(=O)C2=CC(=CC=C2)N(C)C)NC(=O)C3=CC=C(C=C3)O
Method in brief: as §1

[16] = compound: CC1=CC=C(C=C1)SC2=C3C=C(SC3=CN=C2)C(=O)N
Method in brief: as §1

Measured: log2 fold change

TMED9 (UniProt Q9BVK6)
inactive: erlotinib -0.023 | [1] 0.054 | [2] -0.063 | [3] 0.023 | [4] -0.04 | [5] -0.02 | [6] -0.008 | [7] 0 | [8] 0.017 | IRAK-1-4 Inhibitor I 0 | ibrutinib 0 | [9] 0.026 | ralimetinib -0.025 | [10] -0.009 | [11] 0 | [12] -0.017 | [13] 0 | [14] -0.011 | [15] -0.023 | [16] 0.023

TM9SF1 (UniProt O15321)
inactive: erlotinib 0.021 | [1] 0.058 | [2] 0.049 | [3] -0.037 | [4] 0.192 | [5] -0.006 | [6] -0.044 | [7] 0.038 | [8] -0.005 | IRAK-1-4 Inhibitor I 0.031 | ibrutinib 0.088 | [9] 0.041 | ralimetinib -0.03 | [10] 0.05 | [11] -0.026 | [12] -0.009 | [13] 0.028 | [14] -0.013 | [15] -0.007 | [16] 0.055

TMEM126A (UniProt Q9H061)
inactive: erlotinib 0 | [1] -0.043 | [2] -0.027 | [3] -0.023 | [4] 0.005 | [5] -0.008 | [6] 0.019 | [7] -0.037 | [8] 0.006 | IRAK-1-4 Inhibitor I -0.016 | ibrutinib 0.023 | [9] 0.002 | ralimetinib 0.05 | [10] -0.03 | [11] -0.037 | [12] 0.051 | [13] 0.017 | [14] -0.05 | [15] 0.003 | [16] 0.014

Looked up one by one from the list above, two records:
TM9SF1 (UniProt O15321)
inactive: erlotinib 0.021 | [1] 0.058 | [2] 0.049 | [3] -0.037 | [4] 0.192 | [5] -0.006 | [6] -0.044 | [7] 0.038 | [8] -0.005 | IRAK-1-4 Inhibitor I 0.031 | ibrutinib 0.088 | [9] 0.041 | ralimetinib -0.03 | [10] 0.05 | [11] -0.026 | [12] -0.009 | [13] 0.028 | [14] -0.013 | [15] -0.007 | [16] 0.055

TMEM126A (UniProt Q9H061)
inactive: erlotinib 0 | [1] -0.043 | [2] -0.027 | [3] -0.023 | [4] 0.005 | [5] -0.008 | [6] 0.019 | [7] -0.037 | [8] 0.006 | IRAK-1-4 Inhibitor I -0.016 | ibrutinib 0.023 | [9] 0.002 | ralimetinib 0.05 | [10] -0.03 | [11] -0.037 | [12] 0.051 | [13] 0.017 | [14] -0.05 | [15] 0.003 | [16] 0.014

Next part.

THEMIS2 (UniProt Q5TEJ8)
inactive: erlotinib -0.035 | [1] 0.006 | [2] 0.004 | [3] 0.036 | [4] 0.031 | [5] -0.041 | [6] -0.024 | [7] -0.02 | [8] 0.042 | IRAK-1-4 Inhibitor I 0.031 | ibrutinib 0.029 | [9] -0.038 | ralimetinib 0.059 | [10] -0.037 | [11] -0.009 | [12] 0.029 | [13] -0.051 | [14] -0.023 | [15] -0.042 | [16] 0.126

TMEM120A (UniProt Q9BXJ8)
inactive: erlotinib -0.022 | [1] -0.169 | [2] -0.095 | [3] 0.101 | [4] 0.046 | [5] -0.015 | [6] -0.147 | [7] -0.143 | [8] 0.009 | IRAK-1-4 Inhibitor I -0.006 | ibrutinib -0.088 | [9] 0.036 | ralimetinib 0.025 | [10] -0.354 | [11] -0.057 | [12] 0.037 | [13] -0.052 | [14] 0.044 | [15] 0.045 | [16] -0.055

TMEM126B (UniProt Q8IUX1)
inactive: erlotinib 0.023 | [1] 0.077 | [2] 0.007 | [3] -0.061 | [4] 0.039 | [5] 0.028 | [6] -0.02 | [7] 0.009 | [8] 0.03 | IRAK-1-4 Inhibitor I 0.035 | ibrutinib -0.024 | [9] 0.006 | ralimetinib -0.026 | [10] -0.114 | [11] -0.033 | [12] 0.025 | [13] -0.05 | [14] 0.14 | [15] 0.004 | [16] 0.008

TIMP1 (UniProt P01033)
inactive: erlotinib 0.005 | [1] -0.03 | [2] 0.013 | [3] 0.019 | [4] -0.01 | [5] -0.009 | [6] -0.048 | [7] -0.025 | [8] 0.032 | IRAK-1-4 Inhibitor I 0.028 | ibrutinib -0.016 | [9] -0.074 | ralimetinib -0.006 | [10] -0.02 | [11] 0.03 | [12] 0.106 | [13] -0.039 | [14] 0.077 | [15] -0.005 | [16] -0.063

THUMPD1 (UniProt Q9NXG2)
inactive: erlotinib 0.008 | [1] -0.006 | [2] 0.007 | [3] -0.002 | [4] 0.001 | [5] -0.006 | [6] 0.016 | [7] 0.011 | [8] -0.014 | IRAK-1-4 Inhibitor I 0.007 | ibrutinib 0 | [9] 0.015 | ralimetinib -0.016 | [10] -0.002 | [11] 0.005 | [12] -0.032 | [13] 0.029 | [14] 0.001 | [15] -0.023 | [16] 0.002

TMCO6 isoform 2 (UniProt Q96DC7)
inactive: erlotinib -0.05 | [1] -0.199 | [2] 0.066 | [3] -0.165 | [4] -0.055 | [5] -0.021 | [6] -0.111 | [7] 0.064 | [8] 0.055 | IRAK-1-4 Inhibitor I -0.041 | ibrutinib 0.025 | [9] 0.06 | ralimetinib 0.004 | [10] -0.05 | [11] -0.016 | [12] 0.093 | [13] -0.049 | [14] 0.056 | [15] 0.02 | [16] 0.039

THADA (UniProt Q6YHU6)
inactive: erlotinib 0.059 | [1] -0.003 | [2] 0 | [3] 0.004 | [4] -0.011 | [5] -0.004 | [6] -0.017 | [7] -0.024 | [8] 0.017 | IRAK-1-4 Inhibitor I -0.017 | ibrutinib 0.011 | [9] 0.006 | ralimetinib -0.009 | [10] -0.029 | [11] -0.016 | [12] -0.01 | [13] 0.012 | [14] 0.028 | [15] 0.03 | [16] 0.013

TMEM185B (UniProt Q9H7F4)
inactive: erlotinib -0.021 | [1] 0.021 | [2] -0.011 | [3] 0.069 | [4] 0 | [5] -0.041 | [6] 0.053 | [7] 0.042 | [8] 0.002 | IRAK-1-4 Inhibitor I 0.117 | ibrutinib -0.042 | [9] 0.033 | ralimetinib -0.062 | [10] -0.062 | [11] -0.018 | [12] 0.079 | [13] -0.203 | [14] 0.064 | [15] -0.003 | [16] 0.111

THNSL1 (UniProt Q8IYQ7)
inactive: erlotinib 0.094 | [1] 0.028 | [2] 0.028 | [3] -0.026 | [4] -0.033 | [5] -0.034 | [6] -0.063 | [7] -0.011 | [8] -0.028 | IRAK-1-4 Inhibitor I 0.002 | ibrutinib -0.019 | [9] -0.007 | ralimetinib 0.016 | [10] -0.076 | [11] -0.011 | [12] 0.002 | [13] 0.032 | [14] 0.03 | [15] -0.026 | [16] -0.001

TIMMDC1 (UniProt Q9NPL8)
inactive: erlotinib -0.057 | [1] -0.013 | [2] 0.015 | [3] 0.028 | [4] -0.018 | [5] -0.001 | [6] 0.032 | [7] 0.033 | [8] -0.02 | IRAK-1-4 Inhibitor I 0.01 | ibrutinib 0.021 | [9] -0.017 | ralimetinib 0.002 | [10] -0.023 | [11] 0.001 | [12] 0.001 | [13] -0.075 | [14] 0.006 | [15] 0.023 | [16] -0.02

TMED1 (UniProt Q13445)
inactive: erlotinib -0.21 | [1] -0.074 | [2] 0.056 | [3] 0.051 | [4] -0.034 | [5] 0.114 | [6] -0.152 | [7] -0.032 | [8] -0.04 | IRAK-1-4 Inhibitor I -0.101 | ibrutinib 0.085 | [9] 0.017 | ralimetinib -0.035 | [10] -0.042 | [11] -0.108 | [12] -0.023 | [13] -0.129 | [14] -0.058 | [15] -0.01 | [16] -0.059

TIMM13 (UniProt Q9Y5L4)
inactive: erlotinib -0.046 | [1] 0.004 | [2] 0.017 | [3] 0.029 | [4] 0.011 | [5] 0.033 | [6] -0.04 | [7] 0.013 | [8] 0.064 | IRAK-1-4 Inhibitor I -0.052 | ibrutinib 0.057 | [9] -0.008 | ralimetinib 0.005 | [10] -0.015 | [11] -0.029 | [12] 0.045 | [13] -0.031 | [14] 0.011 | [15] -0.048 | [16] -0.003
